This assay addresses Plasmodium falciparum profilin, wild type (Plasmodium falciparum) (UniProt Q8I2J4). Description: SEC; size-exclusion chromatogram of the purified wild-type and mutant profilins (S7A Fig); both purified. On the technique in general: Size exclusion chromatography separates by hydrodynamic size, large species first.

Results are given in words; binding and its absence hold for the method and conditions named.

B1: Plasmodium falciparum profilin, wild type (protein, UniProt Q8I2J4 1-171)
chain: MAEEYSWDSYLNDRLLATNQVSGAGLASEEDGVVYACVAQGEESDPNFDKWSLFYKEDYDIEVEDENGTKTTKTINEGQTILVVFNEGYAPDGVWLGGTKYQFINIERDLEFEGYNFDVATCAKLKGGLHLVKVPGGNILVVLYDEEKEQDRGNSKIAALTFAKELAESSQ
For the molecule B1, the binding entry is “no binding”.
